# PubChem BioAssay AID250 (DTP/NCI, 2004)
# The list does not hold the whole screen: it gathers tests that were run many times, whatever their T/C, doses with no T/C, and many T/C values between a quarter and a half above the control. Other doses and runs of a compound stand elsewhere. T/C: endpoint of the treated group in % of that of the vehicle group. Some doses have a count of surviving animals in place of a T/C: the source holds a T/C of zero for them, seemingly a mark for toxic or unscored doses. Some doses without a T/C left all or most animals alive at the check, yet need not have been tolerated: the source hardly ever lists a survival T/C far under the control, and the zero likely stands for such cases as well. For part of these data: Counts of survivors are from the toxicity check (mostly the fifth day) where no day follows; animals may have died later. Schedules are NCI's codes, read here as Q, the interval in days (D) or hours (H), X, the number of doses. Some schedules carry Z or #; the key to these is not given. Some entries hold several experiments; their values stand side by side, smallest first. For survival time, the PubChem record calls one and a half times the control and up active, and a quarter to a half above the control has no call in these data; cut-offs in other NCI protocols can differ. Some T/C values are followed by the survivors on the day toxicity was checked, most often the fifth; without a count, all were alive then.
# Key:
# [1] = tested on: BDF1 mice, L1210 leukemia sc; test: NCI In Vivo Anticancer Drug Screen. Data for tumor model L1210 Leukemia (subcutaneous) in B6D2F1 (BDF1) mice; settings: T/C endpoint: median survival time, higher T/C = longer survival
# Method in brief: (§1)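 Transplantable tumor-bearing mice; survival or tumor size recorded; result = T/C, treated vs vehicle control.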
# [2] = tested on: BDF1 mice, L1210 leukemia sc, survival T/C; test: as above; settings: T/C endpoint: median survival time, higher T/C = longer survival
# Method in brief: as §1
# [3] = dose: 10.0 mg/kg/injection, schedule: Q03HX008 (sc), vehicle: saline, evaluated on day 60
# [4] = dose: 20.0 mg/kg/injection, schedule: Q03HX008 (sc), vehicle: saline, evaluated on day 60
# [5] = dose: 40.0 mg/kg/injection, schedule: Q03HX008 (sc), vehicle: saline, evaluated on day 60
# [6] = dose: 50.0 mg/kg/injection, schedule: Q01DX001 (sc), vehicle: saline, evaluated on day 60
# [7] = dose: 100.0 mg/kg/injection, schedule: Q01DX001 (sc), vehicle: saline, evaluated on day 60
# [8] = dose: 8.0 mg/kg/injection, schedule: Q01DX009 (ip), vehicle: water
# [9] = dose: 8.0 mg/kg/injection, schedule: Q01DX009 (sc), vehicle: water
# [10] = dose: 16.0 mg/kg/injection, schedule: Q01DX009 (ip), vehicle: water
# [11] = dose: 16.0 mg/kg/injection, schedule: Q01DX009 (sc), vehicle: water
# [12] = dose: 36.0 mg/kg/injection, schedule: Q01DX Z (sc), vehicle: saline
structure (smiles),measurement,setting,value
CS(=O)(=O)OCCCNCCCOS(C)(=O)=O,T/C,"[1]; dose: 60.0 mg/kg/injection, schedule: Q01DX009 (sc), vehicle: saline",139 % of control
same,T/C,"[1]; dose: 65.0 mg/kg/injection, schedule: Q04DX003 (ip), vehicle: saline",137 % of control
same,T/C,"[1]; dose: 108.0 mg/kg/injection, schedule: Q04DX003 (ip), vehicle: saline",131 % of control
same,survivor count,"[2]; dose: 120.0 mg/kg/injection, schedule: Q01DX009 (sc), vehicle: saline",7 of 10
CC1CCC(NC(=O)N(CCCl)N=O)CC1 (stereo not given),T/C,"[1]; dose: 5.0 mg/kg/injection, schedule: Q03HX008 (sc), vehicle: saline",135 % of control
same,T/C,[1]; [3],130 % of control [7 of 8 alive]
same,T/C,"[1]; dose: 20.0 mg/kg/injection, schedule: Q03HX008 (sc), vehicle: saline, evaluated on day 7",125 % of control
same,T/C,"[1]; dose: 20.0 mg/kg/injection, schedule: Q03HX008 (sc), vehicle: saline, evaluated on day 9",133 % of control
same,T/C,[1]; [4],127 % of control
same,T/C,[1]; [5],130 % of control [7 of 8 alive]
same,T/C,[1]; [6],140 % of control [7 of 8 alive]
same,T/C,"[1]; dose: 100.0 mg/kg/injection, schedule: Q01DX001 (sc), vehicle: saline, evaluated on day 9",142 % of control
same,T/C,[1]; [7],135 % of control [6 of 8 alive]
same,T/C,"[2]; dose: 10.0 mg/kg/injection, schedule: Q03HX008 (sc), vehicle: saline, evaluated on day 7",638 % of control
same,T/C,"[2]; dose: 10.0 mg/kg/injection, schedule: Q03HX008 (sc), vehicle: saline, evaluated on day 9",193 % of control
same,T/C,[2]; [3],666 % of control
same,T/C,[2]; [4],175 % of control [6 of 8 alive]
same,T/C,"[2]; dose: 25.0 mg/kg/injection, schedule: Q01DX001 (sc), vehicle: saline, evaluated on day 7",121 % of control
same,T/C,"[2]; dose: 25.0 mg/kg/injection, schedule: Q01DX001 (sc), vehicle: saline, evaluated on day 9",115 % of control
same,T/C,"[2]; dose: 25.0 mg/kg/injection, schedule: Q01DX001 (sc), vehicle: saline, evaluated on day 60",110 [6 of 8 alive] and 122 % of control
same,T/C,"[2]; dose: 40.0 mg/kg/injection, schedule: Q03HX008 (sc), vehicle: saline, evaluated on day 7",99 % of control
same,T/C,"[2]; dose: 40.0 mg/kg/injection, schedule: Q03HX008 (sc), vehicle: saline, evaluated on day 9",120 % of control
same,T/C,[2]; [5],100 % of control
same,T/C,"[2]; dose: 50.0 mg/kg/injection, schedule: Q01DX001 (sc), vehicle: saline, evaluated on day 7",244 % of control
same,T/C,"[2]; dose: 50.0 mg/kg/injection, schedule: Q01DX001 (sc), vehicle: saline, evaluated on day 9",153 % of control
same,T/C,[2]; [6],222 % of control
same,T/C,"[2]; dose: 100.0 mg/kg/injection, schedule: Q01DX001 (sc), vehicle: saline, evaluated on day 7",636 % of control
same,T/C,[2]; [7],666 % of control
same,T/C,"[2]; dose: 200.0 mg/kg/injection, schedule: Q01DX001 (sc), vehicle: saline, evaluated on day 7",108 % of control
same,T/C,"[2]; dose: 200.0 mg/kg/injection, schedule: Q01DX001 (sc), vehicle: saline, evaluated on day 9",608 % of control
same,T/C,"[2]; dose: 200.0 mg/kg/injection, schedule: Q01DX001 (sc), vehicle: saline, evaluated on day 60",111 and 490 % of control
CO[C@@]12[C@H](COC(N)=O)C3=C(C(=O)C(C)=C(N)C3=O)N1C[C@@H]1N[C@@H]12,T/C,"[1]; dose: 3.64 mg/kg/injection, schedule: Q01DX Z (sc), vehicle: saline",129 % of control
same,T/C,"[1]; dose: 5.0 mg/kg/injection, schedule: Q01DX Z (sc), vehicle: saline",127 % of control
same,T/C,"[1]; dose: 8.4 mg/kg/injection, schedule: Q02DX Z (sc), vehicle: saline",136 % of control
same,T/C,"[1]; dose: 14.0 mg/kg/injection, schedule: Q01DX001 (sc), vehicle: saline",127 % of control
same,T/C,"[1]; dose: 14.0 mg/kg/injection, schedule: Q## X Z (sc), vehicle: saline",136 % of control [9 of 10 alive]
same,survivor count,[2]; [8],10 of 10
same,survivor count,[2]; [9],10 of 10
same,survivor count,[2]; [10],9 of 10
same,survivor count,[2]; [11],10 of 10
C=CC(CN1CC1)OC(C)=O (stereo not given),T/C,[1]; [12],133 % of control
same,survivor count,"[2]; dose: 2.8 mg/kg/injection, schedule: Q01DX Z (sc), vehicle: saline",0 of 10
same,survivor count,"[2]; dose: 4.7 mg/kg/injection, schedule: Q01DX Z (sc), vehicle: saline",4 of 10
same,survivor count,"[2]; dose: 7.8 mg/kg/injection, schedule: Q01DX Z (sc), vehicle: saline",6 of 10
same,survivor count,"[2]; dose: 13.0 mg/kg/injection, schedule: Q01DX Z (sc), vehicle: saline",5 of 10
same,survivor count,"[2]; dose: 22.0 mg/kg/injection, schedule: Q01DX Z (sc), vehicle: saline",6 of 10
same,survivor count,[2]; [12],7 of 10
same,survivor count,"[2]; dose: 60.0 mg/kg/injection, schedule: Q01DX Z (sc), vehicle: saline",4 of 10
same,survivor count,"[2]; dose: 100.0 mg/kg/injection, schedule: Q01DX Z (sc), vehicle: saline",0 of 10 and 5 of 10
OC(C1CO1)C(O)C1CO1 (stereo not given),T/C,"[1]; dose: 2.0 mg/kg/injection, schedule: Q01DX009 (ip), vehicle: water",144 % of control
same,T/C,"[1]; dose: 4.0 mg/kg/injection, schedule: Q01DX009 (ip), vehicle: water",133 % of control
same,T/C,"[1]; dose: 4.0 mg/kg/injection, schedule: Q01DX009 (sc), vehicle: water",133 % of control
same,survivor count,[2]; [8],8 of 8
same,survivor count,[2]; [9],8 of 8
same,survivor count,[2]; [10],4 of 8
same,survivor count,[2]; [11],5 of 8
same,survivor count,"[2]; dose: 16.0 mg/kg/injection, schedule: Q04DX003 (ip), vehicle: water",2 of 8
same,survivor count,"[2]; dose: 16.0 mg/kg/injection, schedule: Q04DX003 (sc), vehicle: water",2 of 8
same,survivor count,"[2]; dose: 32.0 mg/kg/injection, schedule: Q04DX003 (ip), vehicle: water",3 of 8
same,survivor count,"[2]; dose: 32.0 mg/kg/injection, schedule: Q04DX003 (sc), vehicle: water",2 of 8
